For at least one entry, the source does not settle the construct or the ends of the probe. A negative result means that nothing was seen under these conditions. For some of these results: At least one verdict rests on a figure or table, not on a statement of the authors.
What was measured:
CTD alone (Homo sapiens) [1] = test: EMSA; conditions: similar to RGG box alone; 10 mM Tris-HCl, 100 mM KCl, 5 mM Mg(OAc)2, pH 7.4, BSA, on ice 1 h; mRNA EMSA 0.4 pmol RNA + 20 pmol protein in 18 ul; recombinant protein; protein details: N-MBP, C-His6; label: 5' FAM
[2] = test system: RGG box alone (Homo sapiens); test: EMSA; conditions: little to no binding; 10 mM Tris-HCl, 100 mM KCl, 5 mM Mg(OAc)2, pH 7.4, BSA, on ice 1 h; mRNA EMSA 0.4 pmol RNA + 20 pmol protein in 18 ul; recombinant …; protein details: N-MBP, C-His6; label: 5' FAM
CTD alone (Homo sapiens) [3] = test: fluorescence polarization; conditions: 10 mM Tris-HCl, 100 mM KCl, 5 mM Mg(OAc)2, pH 7.4, BSA, on ice 1 h; mRNA EMSA 0.4 pmol RNA + 20 pmol protein in 18 ul; recombinant protein; protein details: N-MBP, C-His6; label: 5' FAM
[4] = test system: RGG box alone (Homo sapiens); test: fluorescence polarization; conditions: 10 mM Tris-HCl, 100 mM KCl, 5 mM Mg(OAc)2, pH 7.4, BSA, on ice 1 h; mRNA EMSA 0.4 pmol RNA + 20 pmol protein in 18 ul; recombinant protein; protein details: N-MBP, C-His6; label: 5' FAM

Measured: binding result

UUUUUUUUUUUUUUUUUU [(U)18]
no binding: CTD alone (Homo sapiens) [1] | [2] | CTD alone (Homo sapiens) [3] | [4]
